Drawing on PubChem BioAssay AID192 (DTP/NCI, 2004), this text covers T/C and survivor count for 17 compounds.

The list does not hold the whole screen: it gathers tests that were run many times, whatever their T/C, doses with no T/C, and many T/C values between a quarter and a half above the control. Further doses and runs are listed elsewhere. T/C is the treated group as % of the vehicle group. Some doses have a count of surviving animals in place of a T/C: the source holds a T/C of zero for them, seemingly a mark for toxic or unscored doses. Some survivor counts are full or nearly so, which does not show that the dose was tolerated: the source hardly ever lists a survival T/C far under the control, and the zero likely stands for such cases as well. Survivors were counted at the toxicity check, usually on the fifth day, unless a day is given; later deaths do not show. Schedule codes are those of the source, taken here to give the interval after Q, in days (D) or hours (H), and the number of doses after X. Some entries were tested several times; their values stand side by side, smallest first. Where survival is the endpoint, this PubChem deposit counts one and a half times the control or more as active, and values a quarter to a half above the control carry no call in these data; other NCI protocols may use other cut-offs. Numbered stars: 1 amine (or outer) side, 2 acyl side, 3 side chain; on linkers, the order of the positions; unused ones are H or OH. Bridge positions count the residues as written; N and C are the ends. Square brackets hold non-standard residues; d marks the D form. Peptide text beside a SMILES is read from it. I, II: the chains in the order shown. Actinocin(9to1) = Cc1c2oc3c(C)ccc(C(=O)[*:1])c3nc-2c(C(=O)[*:2])c(N)c1=O; NMeV = CN[CH](C(=O)O)C(C)C; Pip = O=C(O)[CH]1CCCCN1; Sar = CNCC(=O)O

The subject of the test is BDF1 mice, B16 melanoma ip, median survival T/C. Kind of test: NCI In Vivo Anticancer Drug Screen. Data for tumor model B16 Melanoma (intraperitoneal) in B6D2F1 (BDF1) mice. To be noted: T/C endpoint: median survival time, higher T/C = longer survival. The method in brief: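 Antitumor activity is assessed in mice bearing a transplanted tumor, with survival or tumor size compared against vehicle-dosed controls and expressed as T/C.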

The mark [1] stands for this setting: dose: 400.0 mg/kg/injection, schedule: Q01DX001 (ip), vehicle: water.
The mark [2] stands for this setting: dose: 12.0 mg/kg/injection, schedule: Q04DX003 (ip), vehicle: saline + alcohol.
Setting [3] is: dose: 200.0 mg/kg/injection, schedule: Q01DX009 (ip), vehicle: saline with Tween-80.
[4] abbreviates: dose: 100.0 mg/kg/injection, schedule: Q01DX009 (ip), vehicle: Klucel (hydroxypropylcellulose) (HPC).
[5] abbreviates: dose: 200.0 mg/kg/injection, schedule: Q01DX009 (ip), vehicle: Klucel (hydroxypropylcellulose) (HPC).
Setting [6] is: dose: 400.0 mg/kg/injection, schedule: Q01DX009 (ip), vehicle: Klucel (hydroxypropylcellulose) (HPC).
The mark [7] stands for this setting: dose: 100.0 mg/kg/injection, schedule: Q01DX009 (ip), vehicle: saline with Tween-80.
Setting [8] is: dose: 100.0 mg/kg/injection, schedule: Q01DX009 (ip), vehicle: saline.
[9] abbreviates: dose: 50.0 mg/kg/injection, schedule: Q01DX009 (ip), vehicle: saline.
[10] abbreviates: dose: 50.0 mg/kg/injection, schedule: Q01DX009 (ip), vehicle: Klucel (hydroxypropylcellulose) (HPC).

As for `CO[C@H]1C[C@](C)(O)Cc2cc3c(c(O)c21)C(=O)c1c(O)cc2c(c1C3=O)O[C@@H]1O[C@@]2(C)[C@H](O)[C@@H](N(C)C)[C@@H]1O`, the T/C was 125 % of control (dose: 0.78 mg/kg/injection, schedule: Q01DX009 (ip), vehicle: other); 143 and 146 % of control (dose: 1.56 mg/kg/injection, schedule: Q01DX009 (ip), vehicle: other); 143 % of control (dose: 3.12 mg/kg/injection, schedule: Q01DX009 (ip), vehicle: other); 145 % of control (dose: 10.8 mg/kg/injection, schedule: Q04DX003 (ip), vehicle: lactic acid); 127 % of control (dose: 18.0 mg/kg/injection, schedule: Q01DX005 (iv), vehicle: other); 136 % of control (dose: 25.0 mg/kg/injection, schedule: Q01DX001 (ip), vehicle: water). The T/C by setting is: (dose: 30.0 mg/kg/injection, schedule: Q04DX003 (ip), vehicle: lactic acid) 127 and 136 % of control; (dose: 144.0 mg/kg/injection, schedule: Q01DX001 (oral), vehicle: other) 130 % of control; under setting [1], 125 % of control. Further, the survivor count is, setting by setting: (dose: 18.0 mg/kg/injection, schedule: Q01DX009 (ip), vehicle: other) 10 of 10; (dose: 25.0 mg/kg/injection, schedule: Q01DX009 (ip), vehicle: other) 8 of 10 and 10 of 10; (dose: 36.0 mg/kg/injection, schedule: Q01DX001 (iv), vehicle: other) 1 of 10; (dose: 36.0 mg/kg/injection, schedule: Q01DX005 (ip), vehicle: other) 10 of 10; (dose: 36.0 mg/kg/injection, schedule: Q01DX005 (iv), vehicle: other) 1 of 10; (dose: 36.0 mg/kg/injection, schedule: Q01DX009 (ip), vehicle: other) 10 of 10. Moreover, the survivor count (dose: 36.0 mg/kg/injection, schedule: Q01DX009 (oral), vehicle: other) is reported as 9 of 10; the survivor count (dose: 50.0 mg/kg/injection, schedule: Q04DX003 (ip), vehicle: lactic acid) is 9 of 10 and 10 of 10; the survivor count (dose: 72.0 mg/kg/injection, schedule: Q01DX001 (ip), vehicle: other) is reported as 10 of 10; the survivor count (dose: 72.0 mg/kg/injection, schedule: Q01DX001 (iv), vehicle: other) is on record as 0 of 10; the survivor count (dose: 72.0 mg/kg/injection, schedule: Q01DX005 (oral), vehicle: other) is given as 9 of 10; the survivor count (dose: 72.0 mg/kg/injection, schedule: Q01DX009 (oral), vehicle: other) is recorded as 10 of 10. Moreover, the survivor count (dose: 144.0 mg/kg/injection, schedule: Q01DX001 (ip), vehicle: other) is recorded as 2 of 10; the survivor count (dose: 144.0 mg/kg/injection, schedule: Q01DX001 (iv), vehicle: other) was 0 of 10; the survivor count (dose: 288.0 mg/kg/injection, schedule: Q01DX001 (ip), vehicle: other) is on record as 0 of 10; the survivor count (dose: 288.0 mg/kg/injection, schedule: Q01DX001 (iv), vehicle: other) is on record as 0 of 10; the survivor count (dose: 288.0 mg/kg/injection, schedule: Q01DX001 (oral), vehicle: other) was 10 of 10; the survivor count under setting [1] is 9 of 10. The survivor count (dose: 576.0 mg/kg/injection, schedule: Q01DX001 (oral), vehicle: other) is 10 of 10.
In the case of `Cc1c2oc3c(C)ccc(C(=O)NC4C(=O)NC(C(C)C)C(=O)N5CCCCC5C(=O)N(C)CC(=O)N(C)C(C(C)C)C(=O)OC4C)c3nc-2c(C(=O)NC2C(=O)NC(C(C)C)C(=O)N3CCCCC3C(=O)N(C)CC(=O)N(C)C(C(C)C)C(=O)OC2C)c(N)c1=O` (stereo unspecified) (I: TV[Pip][Sar][NMeV] / II: TV[Pip][Sar][NMeV]; ester I:1-I:C, II:1-II:C; linker I:N-II:N via Actinocin(9to1); configuration not given here), the T/C by setting is: (dose: 1.0 mg/kg/injection, schedule: Q01DX009 (ip), vehicle: saline + alcohol) 137 % of control; (dose: 3.0 mg/kg/injection, schedule: Q04DX003 (ip), vehicle: saline + alcohol) 128 and 141 % of control; (dose: 4.0 mg/kg/injection, schedule: Q01DX009 (ip), vehicle: saline + alcohol) 147 % of control; (dose: 6.0 mg/kg/injection, schedule: Q04DX003 (ip), vehicle: saline + alcohol) 131 % of control; under setting [2], 141 % of control. Moreover, the survivor count under setting [2] was 8 of 8.
Take `[O-][n+]1c(CCl)nc2cccc3c2c1-c1ccccc1-3`: the survivor count under setting [3] was 9 of 10.
As to `CCCCCCCCC(=O)OCCNC(=O)C(C)OC(=O)CCCCCCCC` (stereo unspecified), the survivor count is, setting by setting: under setting [4], 10 of 10; under setting [5], 10 of 10; under setting [6], 10 of 10.
For the compound `Oc1ccc2ccccc2c1N=Nc1ccc(Cl)cc1`, the T/C was 129 % of control (dose: 50.0 mg/kg/injection, schedule: Q01DX009 (ip), vehicle: saline with Tween-80); 134 % of control under setting [7]; 130 % of control under setting [3].
Turning to `c1ccc2cc3c(cc2c1)Cn1c-3nc2ccccc21`, the T/C under setting [8] is 129 % of control. For the same compound, the survivor count by setting is: (dose: 600.0 mg/kg/injection, schedule: Q01DX009 (ip), vehicle: saline with Tween-80) 10 of 10; (dose: 900.0 mg/kg/injection, schedule: Q01DX009 (ip), vehicle: saline with Tween-80) 10 of 10.
For `Cc1cc(OCc2nc(N)nc(N)c2-c2ccc(Cl)c(Cl)c2)ccc1NS(=O)(=O)c1cccc(S(=O)(=O)F)c1`, the T/C runs as follows: (dose: 176.0 mg/kg/injection, schedule: Q04DX003 (ip), vehicle: saline) 133 % of control; (dose: 264.0 mg/kg/injection, schedule: Q04DX003 (ip), vehicle: saline) 136 % of control.
Regarding `CCCCCCOCCN1CCN(CCCN2c3ccccc3Sc3ccc(C(F)(F)F)cc32)CC1`, where the note is “dose: 4.0 mg/kg/injection, schedule: Q01DX009 (ip), vehicle: saline with Tween-80”, the survivor count is 8 of 10.
For the compound `CCCCCC(CN(C)C)C(=O)/C=C\c1ccc(Cl)cc1Cl` (stereo unspecified), the survivor count is 10 of 10 (dose: 25.0 mg/kg/injection, schedule: Q01DX009 (ip), vehicle: saline) and 10 of 10 under setting [9].
For `CCCCCCC(=O)/C=C/c1cccc(OCOCC)c1`, the survivor count under setting [3] is 9 of 10.
`O=c1ssc(=Nc2ccccc2)n1-c1ccccc1`: the survivor count under setting [6] is 10 of 10.
For `N=C(N)SCc1c2ccccc2c(CSC(=N)N)c2ccccc12`, the survivor count by setting is: under setting [9], 6 of 6; under setting [8], 6 of 6; (dose: 200.0 mg/kg/injection, schedule: Q01DX009 (ip), vehicle: saline) 6 of 6.
With `COc1cccc(/C=c2\[nH]c(=O)/c(=C/c3cccc(OC)c3OC)[nH]c2=O)c1OC`, the survivor count is given as 10 of 10 under setting [4] and 10 of 10 under setting [5].
As for `COC(=O)c1cc(Cl)ccc1OCC(=O)Nc1ccc([N+](=O)[O-])cc1`, the survivor count under setting [5] was 9 of 10.
For the compound `c1ccc(N2CCOCC2)cc1`, under setting [6], the survivor count is on record as 0 of 10.
On to `O=C(O[Si](Cc1ccccc1)(Cc1ccccc1)Cc1ccccc1)N(CCCl)CCCl`, for which the survivor count runs as follows: under setting [7], 10 of 10; under setting [3], 10 of 10.
Take `CN(C)N=Nc1ccccc1`: the T/C is, setting by setting: (dose: 6.25 mg/kg/injection, schedule: Q01DX009 (ip), vehicle: Klucel (hydroxypropylcellulose) (HPC)) 131 % of control; (dose: 25.0 mg/kg/injection, schedule: Q01DX009 (ip), vehicle: Klucel (hydroxypropylcellulose) (HPC)) 130 % of control; under setting [10], 136 % of control. In addition, the survivor count by setting is: under setting [10], 10 of 10; under setting [4], 0 of 10 and 9 of 10; under setting [5], 0 of 10.
